Measurements reported in PubChem BioAssay AID1259424 (University of Nebraska Medical Center, 2018).
Shown is a random part of about 14,000 reagents. 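Higher correlation or smaller distance means closer resemblance to KSR1 loss; control wells, including KSR1 knockdowns, recur on many plates.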 Not all columns of the deposit are shown. Not given: the time to read-out.

- Test: 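Seek colon cancer survival genes behaving like KSR1, using a six-gene signature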 (primary screen)
- Cell system: human HCT116 colon cancer cells
- Reagent: siRNA pool against human genes, 50 nM
- Detection: 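Six signature mRNAs by branched-DNA multiplex assay, scaled to two housekeeping genes and non-targeting median, log2; matched to mean KSR1 knockdown profile by Pearson correlation and euclidean distance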
- Direction: mean correlation with KSR1 profile: higher = expression change more like KSR1 knockdown

gene symbol	mean correlation with KSR1 profile
WDR12 (WD repeat domain 12)	-0.325
CEL (carboxyl ester lipase)	-0.657
TCP11L1 (t-complex 11 like 1)	0.175
ORC4 (origin recognition complex subunit 4)	-0.356
PFKFB3 (6-phosphofructo-2-kinase/fructose-2,6-biphosphatase 3)	0.416
KLHL22 (kelch like family member 22)	0.794
DAGLA (diacylglycerol lipase alpha)	-0.0549
FXYD2 (FXYD domain containing ion transport regulator 2)	0.418
RAB22A (RAB22A, member RAS oncogene family)	-0.229
ATXN2 (ataxin 2)	0.205
IFT54 (intraflagellar transport 54)	-0.269
HBP1 (HMG-box transcription factor 1)	-0.184
PRLHR (prolactin releasing hormone receptor)	0.78
FRMPD1 (FERM and PDZ domain containing 1)	-0.0273
SP110 (SP110 nuclear body protein)	0.359
ZNF281 (zinc finger protein 281)	-0.33
NLRP12 (NLR family pyrin domain containing 12)	0.71
KCNJ12 (potassium inwardly rectifying channel subfamily J member 12)	-0.596
PCDHB16 (protocadherin beta 16)	-0.316
RIOX2 (ribosomal oxygenase 2)	0.762
STK40 (serine/threonine kinase 40)	-0.0642
CASK (calcium/calmodulin dependent serine protein kinase)	0.479
H19 (H19 imprinted maternally expressed transcript)	0.383
LMO7 (LIM domain 7)	0.0403
MYO7A (myosin VIIA)	-0.393
NBR1 (NBR1 autophagy cargo receptor)	0.521
HK1 (hexokinase 1)	0.767
SEMA4C (semaphorin 4C)	0.516
PRP4K (pre-mRNA processing factor kinase PRP4K)	0.039
ATG13 (autophagy related 13)	-0.817
B2M (beta-2-microglobulin)	0.206
TDRKH (tudor and KH domain containing)	-0.66
ALX1 (ALX homeobox 1)	0.454
RPL3L (ribosomal protein L3 like)	0.302
RPS6KA4 (ribosomal protein S6 kinase A4)	0.502
MMP9 (matrix metallopeptidase 9)	0.628
PRPF40B (pre-mRNA processing factor 40B)	-0.09
ART1 (ADP-ribosyltransferase 1)	-0.167
SIRAL1 (SIR2 antiphage like 1)	0.756
RNF122 (ring finger protein 122)	0.318
NLGN4Y (neuroligin 4 Y-linked)	-0.143
BGN (biglycan)	0.00144
ZNF285 (zinc finger protein 285)	-0.102
AP5M1 (adaptor related protein complex 5 subunit mu 1)	-0.493
NT5C (5', 3'-nucleotidase, cytosolic)	-0.0372
C19orf12 (chromosome 19 open reading frame 12)	0.278
SH3BGR (SH3 domain binding glutamate rich protein)	0.192
MXI1 (MAX interactor 1, dimerization protein)	0.246
GMEB1 (glucocorticoid modulatory element binding protein 1)	0.607
DUSP18 (dual specificity phosphatase 18)	-0.558

Quoted from above, 4 entries:
gene symbol	mean correlation with KSR1 profile
SEMA4C (semaphorin 4C)	0.516
PRP4K (pre-mRNA processing factor kinase PRP4K)	0.039
ATG13 (autophagy related 13)	-0.817
B2M (beta-2-microglobulin)	0.206
